Experimental data from PubChem BioAssay AID1296 (Columbia University Molecular Screening Center, 2008).
Out of some 130,000 compounds screened, about 1,000 (0.77%) were called active. This list was built around the results that the source calls inconclusive (neither active nor inactive); the mix of calls is not that of the screen.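 How the source made its calls: active means activation at 2 µM above a set limit, confirmed on inspection of the cell images; inconclusive means above the set limit but not confirmed on image inspection; inactive means the rest.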

Assay: activators of insulin promoter-driven GFP, primary screen, imaging, TRM-6 cells (human fetal islet line), eGFP reporter, cell count (AID 1296;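 further: share of cells whose green reporter signal exceeds an intensity cutoff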)
Conditions: at 2 µM, hits give high values, plate-scaled: unstimulated 0, stimulated control 100
Summary of the method: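 test system = TRM-6 insulin promoter–eGFP reporter cells | benchmarks = stimulated versus unstimulated wells as plate controls | read-out basis = percent cells above green-intensity threshold, converted to percent activation versus plate controls | detection = fixed-cell fluorescence microscopy, eGFP plus Hoechst | incubation = tamoxifen pre-incubation 15 h overnight, then compound exposure 48 h at 37 °C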
With `CCCCCC(=O)NNC(=O)c1ccc(-c2ccccc2)cc1` the activation was inactive: 6.67%. With `N#C/C(=C\c1ccc([N+](=O)[O-])o1)C(=O)Nc1ccc(F)cc1` the activation was active: 400%. For `CCOc1cc(C(=O)N2CCCC2)cc(OCC)c1OCC`, the activation was inconclusive: 412%. For `CC(C)(C)n1nnnc1C(c1ccc(Cl)cc1)N1CCSCC1` (stereo not given), the activation was inconclusive: 475%. For `Cc1cccnc1NC(=O)C1CCN(S(=O)(=O)c2cccs2)CC1`, the activation was inactive: -3.57%. In the case of `COc1ccc(C2Nc3ccccc3C(=O)N2c2ccccc2)cc1COc1ccccn1` (stereo not given), the activation is reported as active: 220%. For `CCOC(=O)N1CCN(C2OC(=O)c3ccccc32)CC1` (stereo not given), the activation was active: 459%. In the case of `O=C(CO/N=C/c1cccc([N+](=O)[O-])c1)NC1CCCCCC1`, the activation is reported as active: 450%. For `Cc1occc1C(=O)NNC(=O)Cc1ccccc1`, the activation was inactive: 9.76%. With `Cc1ccc(C)n1-c1ccc(N(C)C)cc1` the activation was inconclusive: 215%. With `Cc1cc(C(=O)CSc2n[nH]c(N)n2)c(C)n1-c1ccc(F)cc1` the activation was inconclusive: 469%. For `O=C(CCCN1C(=O)CCC1=O)Nc1ccc(Cl)c(C(F)(F)F)c1`, the activation was active: 444%. With `CC(C)c1ccc(OCc2cccc(C(=O)N/N=C/c3cccnc3)c2)cc1` the activation was inconclusive: 286%. In the case of `O=C1C=C(c2ccccc2)CC(c2cccs2)C1n1cnc([N+](=O)[O-])c1` (stereo not given), the activation is reported as inconclusive: 75.7%. For `Cc1cc(-c2ccccc2)c(C#N)c(N)n1`, the activation was inactive: -3.57%. For `Cn1c(SCC(=O)NC2CC2)nnc1-c1ccco1`, the activation was inactive: -6.06%. With `Cc1cc(-c2ccccc2)nn1-c1nc2c(c(=O)[nH]c(=O)n2C)n1C` the activation was inactive: -8.7%. In the case of `CCn1c(CNC(=O)Cc2ccc(OC)cc2)nnc1SCCOc1ccccc1`, the activation is reported as inconclusive: 585%. For `O=C(CNC(=O)c1ccc(-c2ccccc2)cc1)OCc1ccc(Br)cc1`, the activation was inconclusive: 400%. For `CCOC(=O)C(NC(=O)Nc1ncccn1)(Oc1ccccc1)C(F)(F)F` (stereo not given), the activation was active: 190%. In the case of `CCOC(=O)C1=C(C)NC(SC)=NC1c1ccc(OC)cc1` (stereo not given), the activation is reported as inconclusive: 438%. In the case of `O=C1CC(NN2CCCCC2)C(=O)N1c1ccccc1` (stereo not given), the activation is reported as inactive: -2.56%. For `CC(C)OC(=O)CN1C(=O)S/C(=C/c2ccc(N3CCCCC3)o2)C1=O`, the activation was active: 170%. For `CCOC(=O)C1=C(C)NC2=C(C(=O)CC(c3cccs3)C2)C1c1cccs1` (stereo not given), the activation was inconclusive: 419%. With `CCC(C)(C)NC(=O)C(c1cccc(OC)c1)N(C(=O)c1ccn[nH]1)c1cccc(OC)c1` (stereo not given) the activation was inactive: 0%. In the case of `COc1ccccc1NS(=O)(=O)c1cc([N+](=O)[O-])ccc1N/N=C/c1c[nH]c2ccccc12`, the activation is reported as active: 264%. For `COCCCn1c(CCC(=O)O)ccc1-c1cccs1`, the activation was active: 86.5%. In the case of `O=C(O)c1cc(NC(=O)C2CCCO2)cc(NC(=O)C2CCCO2)c1` (stereo not given), the activation is reported as inconclusive: 79%. With `COc1ccc(OCC(O)CN2C(=O)NC(C)(C)C2=O)cc1` (stereo not given) the activation was inactive: -40%. With `COCCCNC(=S)NNC(=O)C1CC1c1ccc(C(C)(C)C)cc1` (stereo not given) the activation was active: 789%. With `CC1CC(C)(C)Nc2ccc(N=O)cc21` (stereo not given) the activation was inconclusive: 158%. In the case of `COc1ccc2c(c1)c1ncn(CCN3CCCCC3)c(=O)c1n2C`, the activation is reported as inconclusive: 467%. In the case of `O=C(c1cccc(S(=O)(=O)N2CCCC2)c1)N1CCN(c2ccccc2F)CC1`, the activation is reported as inconclusive: 454%. For `COC(=O)c1ccccc1NC(=O)Cn1c(=O)n(Cc2ccccc2)c(=O)c2c(C)c(C)sc21`, the activation was inconclusive: 80%. In the case of `C/C(=N\NC(=O)c1nn(C)c(C)c1Br)c1cccc(NC(=O)c2ccoc2C)c1`, the activation is reported as inactive: 7.69%. For `c1ccc(-c2ccc3c(c2)c2c4n3CCN=C4CCC2)cc1`, the activation was inconclusive: 100%. With `CC1(C)CC(=O)C=C(NC2=CC3OC(c4ccccc4)OCC3OC2=O)C1` (stereo not given) the activation was inactive: -7.14%. In the case of `Cc1ccccc1Nc1cccc2nonc12`, the activation is reported as inconclusive: 525%. With `OC(CNCC1CCCO1)Cn1c2ccc(Cl)cc2c2cc(Cl)ccc21` (stereo not given) the activation was active: 88.9%. For `COc1ccc(-c2nc(C)sc2C)cc1`, the activation was active: 419%. For `Cc1ccc2cc(C(c3nnnn3Cc3ccccc3)N3CCN(c4ccccc4)CC3)c(=O)[nH]c2c1` (stereo not given), the activation was inconclusive: 121%. In the case of `COc1cc(NC(=O)Cc2nn(C)c(=O)c3ccccc23)cc(OC)c1`, the activation is reported as inconclusive: 417%. For `Cc1ccc(C2=CSC3=NS(=O)(=O)CCN23)cc1`, the activation was inactive: -8.33%. With `O=C(O)c1ccccc1SCc1cn2cc(Cl)ccc2n1` the activation was inconclusive: 471% [cytotoxic]. In the case of `COc1cc(C(=O)N2CCN(c3ncnc4sc(C)c(C)c34)CC2)cc(OC)c1OC`, the activation is reported as inconclusive: 152%. For `CCOc1ccc(NC(=NCc2ccc3c(c2)OCO3)SC2CC(=O)N(c3ccc(OCC)cc3)C2=O)cc1` (stereo not given), the activation was inconclusive: 450%. With `CCC(C)(C)NC(=O)C(c1ccc(OC)cc1)N(Cc1cccs1)C(=O)CCC(=O)Nc1cc(C)on1` (stereo not given) the activation was active: 600%. With `Cc1scc(C(=O)NNC(=S)NC(C)c2ccccc2)c1C` (stereo not given) the activation was inconclusive: 417%. With `Cc1ccc(NC(=O)c2cc(N3CCOCC3)nc3ccccc23)cc1` the activation was inconclusive: 173%. For `O=C(O)Cn1cccc1C(=O)c1ccccc1`, the activation was inconclusive: 190%. In the case of `Nc1cc(Oc2ccc(F)cc2F)cc([N+](=O)[O-])c1`, the activation is reported as inactive: -6.67%. With `Cc1ccc(C(=O)N/C(=C\c2ccc(-c3cc(Cl)ccc3Cl)o2)C(=O)NCc2cccnc2)cc1` the activation was inconclusive: 240%. In the case of `Cc1ccc2cc3cc(C(=O)N4CCCCCC4)oc3nc2c1`, the activation is reported as active: 183%. For `O=C(Cn1ncc(Cl)c(Cl)c1=O)N1CCc2ccccc21`, the activation was inconclusive: 431% [cytotoxic]. In the case of `Cc1ccccc1OCC(=O)Nc1ccc2oc(=O)ccc2c1`, the activation is reported as inconclusive: 390%. With `CCOc1cc(/C=C(/C#N)c2ccc(F)cc2)ccc1OCc1ccc(C(=O)O)o1` the activation was inactive: 226%. With `COc1ccc(C(=O)NNC(=O)c2cccc(F)c2)cc1` the activation was inactive: 0%. With `Cc1sc(NC(=O)c2ccccc2F)c(CN2CCCCC2)c1C` the activation was active: 485%. In the case of `COc1ccc(Cl)cc1N(C(C)C(=O)NC1CCCC1)S(C)(=O)=O` (stereo not given), the activation is reported as inactive: -2.33%. For `COc1ccc(NC(C)=O)cc1NC(=O)CN1CCN(CC(=O)Nc2ccccc2Cl)CC1`, the activation was inconclusive: 129%.
